This passage reports cell number change and AC50 results from PubChem BioAssay AID2685 (National Center for Advancing Translational Sciences (NCATS), 2010).

As a reminder, the AC50 is the concentration at which the activity in the assay is half-maximal. Read a low AC50 as greater potency.

This test in a line: qHTS Assay for Lipid Storage Modulators in Drosophila S3 Cells.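 On cell number change: cells counted by Cell Tracker Red CMTPX staining in the red channel.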 The following applies: BODIPY lipid droplet fluorescence, 18-24 h; for cell number change: measured here: cell count max response, cells fed with added oleic acid. A digest of the protocol: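 Drosophila S3 cells loaded with oleic acid (400 uM, as added) and compounds at several concentrations; lipid droplets imaged by 488-nm laser-scanning cytometry, 500–530 nm intensity and object ratio to cell channel. Percent activity normalized to 20 uM Triacsin C.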

Where [1] appears, read: measured here: lipid fluorescence (Fed channel) AC50, cells fed with added oleic acid.
Where [2] appears, read: measured here: cell number channel AC50, cells fed with added oleic acid.

Each structure is given as a SMILES string. This is one part of the list. Further columns of the screen follow, without active or inactive calls. The list favours compounds with an active or inconclusive main result. Potencies come from curve fits of mixed quality, noted in brackets.

As for `CCOC(=O)c1ccc(NC2c3ccccc3C(=O)N2c2ccc(C)cn2)cc1` (stereo unspecified), the cell number change is 3.31%. Besides, the half-maximal activity concentration (AC50) under setting [1] is 29100 nM [rising, partial curve, poor fit].

Consider `COc1ccc(C(=O)O/N=C(\N)Cc2cccs2)cc1OC`, for which the cell number change is 13.5%.

In the case of `COc1ccc(S(=O)(=O)N2CCN(CC(=O)Nc3cccc(OC)c3)CC2)cc1`, the cell number change was 11.6%. Moreover, the concentration at half-maximal activity (AC50) under setting [1] was 116 nM [rising, full curve, poor fit].

Take `CC(=O)Oc1ccccc1-c1nc(/C=C/c2ccccc2)no1`: the cell number change amounted to 11.5%. Besides, under setting [1], the AC50 was 6510 nM [rising, single point].

As for `C/C(=N\O)C1CC(CC(=O)O)C1(C)C` (stereo unspecified), the concentration at half-maximal activity (AC50) under setting [1] was 3660 nM [falling, partial curve].

In the case of `CCOC(=O)c1c(NC(=S)NCC2CCCO2)sc(C)c1C` (stereo unspecified), the cell number change stood at 6.43%. Moreover, the AC50 under setting [1] was 2310 nM [rising, single point].

Regarding `COc1ccc2nc(NC(=O)CSC3=NCCS3)sc2c1`, the cell number change was -15.1%. Moreover, under setting [1], the AC50 is 1640 nM [rising, partial curve].

For the compound `CCCOc1ccc(N2CC(C(=O)Nc3ccccc3F)CC2=O)cc1` (stereo unspecified), the cell number change is -0.816%. Further, the AC50 under setting [1] was 82 nM [rising, full curve, poor fit].

`COc1cc(NC(=O)c2cc(Br)cc(C)c2OC)ccc1NC(=O)C(C)C`: the cell number change stood at 123%.

In the case of `Cc1ccccc1CC(=O)Nc1ccc(S(=O)(=O)N2CCOCC2)cc1`, under setting [1], the AC50 is 580 nM [rising, single point].

As for `CCOC(=O)NC(=O)C(=CNc1ccccc1C)C(=O)NC(=O)OCC`, the cell number change is -7.69%. Moreover, the AC50 under setting [1] was 164 nM [falling, full curve, poor fit].

For the compound `O/N=C/c1cc(Cl)ccc1OCc1ccccc1Cl`, the cell number change was -43%. Further, the AC50 under setting [2] is 29100 nM [falling, single point].

For the compound `O=C1c2ccc(Cl)cc2S(=O)(=O)c2cccc(C(=O)N3CCC(Cc4ccccc4)CC3)c21`, the cell number change is -41.5%. Further, the concentration at half-maximal activity (AC50) under setting [2] is 580 nM [falling, full curve]. The concentration at half-maximal activity (AC50) under setting [1] is 517 nM [falling, full curve].

Turning to `CCOC(=O)c1cn2nc(-c3ccc(OC)cc3)cc2nc1C1CCN(C(=O)OC(C)(C)C)CC1`, the cell number change was -3.18%.

Regarding `C=CCSC1=C(C#N)C(c2ccccc2C)CC(=O)N1` (stereo unspecified), the cell number change stood at 27.2%.

Consider `Cn1c(CNC(=O)c2ccc(Cl)cc2)nnc1SCC(=O)NC1=NCCS1`, for which the cell number change is -2.56%. Under setting [1], the half-maximal activity concentration (AC50) is 8200 nM [rising, partial curve].

Regarding `O=C(Nc1ccc(C(=O)NCCCN2CCN(c3ccc(F)cc3)CC2)cc1)C1=CSCCO1`, the cell number change is -47.7%. Further, under setting [2], the AC50 was 29100 nM [falling, single point]. Also, under setting [1], the half-maximal activity concentration (AC50) is 18400 nM [falling, single point].

Consider `COc1ccc2cc(CCNS(=O)(=O)c3c(C)cc(C)cc3C)c(=O)[nH]c2c1`, for which the cell number change is 15.8%.
